Test results: publication PMC5640428

Molecular target: T1, myc-tagged KCC2b (UniProt Q91V14)
T1 sequence: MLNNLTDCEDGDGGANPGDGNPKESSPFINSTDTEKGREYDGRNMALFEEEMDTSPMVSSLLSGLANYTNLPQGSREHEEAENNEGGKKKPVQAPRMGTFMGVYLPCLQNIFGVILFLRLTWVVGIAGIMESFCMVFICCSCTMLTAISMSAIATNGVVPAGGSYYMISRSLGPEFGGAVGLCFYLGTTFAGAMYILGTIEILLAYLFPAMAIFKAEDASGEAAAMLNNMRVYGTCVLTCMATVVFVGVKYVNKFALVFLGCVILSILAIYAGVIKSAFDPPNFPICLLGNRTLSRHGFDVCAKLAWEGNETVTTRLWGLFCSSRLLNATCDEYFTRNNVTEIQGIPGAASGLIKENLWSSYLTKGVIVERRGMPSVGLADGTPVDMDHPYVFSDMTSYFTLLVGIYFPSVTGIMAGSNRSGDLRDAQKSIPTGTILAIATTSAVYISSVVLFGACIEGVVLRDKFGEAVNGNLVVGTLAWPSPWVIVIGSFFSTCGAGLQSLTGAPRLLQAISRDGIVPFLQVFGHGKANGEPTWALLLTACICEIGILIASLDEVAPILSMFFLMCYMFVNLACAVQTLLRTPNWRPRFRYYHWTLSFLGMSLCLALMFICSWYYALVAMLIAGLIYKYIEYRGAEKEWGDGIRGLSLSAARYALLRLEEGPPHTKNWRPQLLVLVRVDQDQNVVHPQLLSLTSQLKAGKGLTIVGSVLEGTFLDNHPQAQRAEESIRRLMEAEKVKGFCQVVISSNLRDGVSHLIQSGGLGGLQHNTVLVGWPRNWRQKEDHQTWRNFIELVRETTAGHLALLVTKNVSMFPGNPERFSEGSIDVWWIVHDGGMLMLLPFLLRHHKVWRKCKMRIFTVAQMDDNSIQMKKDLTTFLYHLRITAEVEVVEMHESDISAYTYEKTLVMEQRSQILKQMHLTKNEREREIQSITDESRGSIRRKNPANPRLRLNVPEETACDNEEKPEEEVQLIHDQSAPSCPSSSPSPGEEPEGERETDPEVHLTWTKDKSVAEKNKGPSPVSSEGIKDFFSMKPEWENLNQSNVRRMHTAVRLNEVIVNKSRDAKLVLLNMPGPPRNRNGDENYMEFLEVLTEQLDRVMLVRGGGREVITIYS
Assay: co-IP; COS7 cells co-transfected with myc-tagged KCC2b and GFP-tagged PACSIN constructs; lysed in modified RIPA buffer; precipitated with anti-N-terminal KCC2b antibody (4 hr, 4°C); immunoblot

| Substance | binding |
| --- | --- |
| eGFP-PACSIN1 without the SH3 domain (mouse) (domain or fragment) | binds |
| eGFP-PACSIN1 VAR region alone (mouse) (domain or fragment) | binds |
| eGFP-PACSIN1 without the F-BAR region (mouse) (domain or fragment) | binds |
| eGFP-PACSIN1 F-BAR domain alone (mouse) (domain or fragment) | no binding |

These are yes or no findings as the source states them, for the method shown. Binding seen in cells or lysates may run through a third protein. Binding calls can cover weak binding; strength is not graded here. Where a sequence is shown, tags or fusion partners need not be part of it.
